Results from publication doi:10.1101/2020.06.07.139030.
No constants are given. Whether binding was seen depends on the method and setting. In cells and extracts the contact can be indirect. Some entries that bind do so weakly or less than the wild type. Tags and fused reporters may be left off the sequences shown.

By UniProt entry, the sequences of proteins in these tests, tags left out.
UniProt Q8R3S6, whole entry: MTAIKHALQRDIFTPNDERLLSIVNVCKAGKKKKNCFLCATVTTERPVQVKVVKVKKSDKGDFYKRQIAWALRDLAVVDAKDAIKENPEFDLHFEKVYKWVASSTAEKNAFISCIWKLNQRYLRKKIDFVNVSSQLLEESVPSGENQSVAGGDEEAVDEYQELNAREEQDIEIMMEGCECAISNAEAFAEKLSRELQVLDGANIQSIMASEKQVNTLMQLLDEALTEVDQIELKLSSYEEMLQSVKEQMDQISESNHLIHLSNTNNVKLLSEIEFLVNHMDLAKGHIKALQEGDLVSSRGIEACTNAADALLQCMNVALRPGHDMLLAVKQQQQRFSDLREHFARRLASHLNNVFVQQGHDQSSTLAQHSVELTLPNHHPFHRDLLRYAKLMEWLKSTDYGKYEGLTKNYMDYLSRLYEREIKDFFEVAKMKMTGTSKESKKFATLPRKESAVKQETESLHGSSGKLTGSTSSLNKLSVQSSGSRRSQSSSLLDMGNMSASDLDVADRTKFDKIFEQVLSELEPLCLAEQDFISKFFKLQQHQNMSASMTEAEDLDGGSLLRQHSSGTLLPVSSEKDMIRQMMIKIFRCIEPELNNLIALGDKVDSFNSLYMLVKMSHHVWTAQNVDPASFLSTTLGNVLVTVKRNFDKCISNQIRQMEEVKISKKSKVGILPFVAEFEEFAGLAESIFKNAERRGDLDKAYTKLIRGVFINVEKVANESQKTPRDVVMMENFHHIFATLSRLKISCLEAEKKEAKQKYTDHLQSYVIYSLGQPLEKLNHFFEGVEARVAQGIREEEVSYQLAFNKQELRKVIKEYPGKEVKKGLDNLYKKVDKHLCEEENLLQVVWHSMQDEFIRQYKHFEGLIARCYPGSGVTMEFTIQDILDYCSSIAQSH

T1: HA-tagged mouse STX2 (mouse) (UniProt Q00262)
T1 sequence: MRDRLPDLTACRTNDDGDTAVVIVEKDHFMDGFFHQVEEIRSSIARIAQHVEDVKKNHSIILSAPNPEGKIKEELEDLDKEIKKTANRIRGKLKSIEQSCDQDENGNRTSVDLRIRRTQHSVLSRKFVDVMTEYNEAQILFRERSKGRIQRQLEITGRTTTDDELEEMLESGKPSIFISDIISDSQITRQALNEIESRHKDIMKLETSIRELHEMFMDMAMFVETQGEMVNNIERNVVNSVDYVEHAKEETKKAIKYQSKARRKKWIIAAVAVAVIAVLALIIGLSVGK

B1: Myc-tagged mouse SNAP23 (protein, UniProt O09044 1-210)
chain: MDNLSPEEVQLRAHQVTDESLESTRRILGLAIESQDAGIKTITMLDEQGEQLNRIEEGMDQINKDMREAEKTLTELNKCCGLCICPCNRTKNFESGKNYKATWGDGGDNSPSNVVSKQPSRITNGQPQQTTGAASGGYIKRITNDAREDEMEENLTQVGSILGNLKNMALDMGNEIDAQNQQIQKITEKADTNKNRIDIANTRAKKLIDS

Biological target: T1, HA-tagged mouse STX2 (mouse)
Test: co-IP

Molecule | binding
FLAG-tagged mouse EXOC1 (from UniProt Q8R3S6 1-894) | binds
B1 | binds
